Data source: PubChem BioAssay AID652243 (Drosophila RNAi Screening Center, 2013)

Test: 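Fly regulators of androgen-dependent reporter output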 (primary screen)
Cell system: Drosophila S2R+ cells
Reagent: long dsRNA against Drosophila genes
Time to read-out: 72 h (48 h, then 24 h hormone)
Treatment: synthetic androgen R1881 at 10 nM for 24 h
Measured: 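Firefly light from an androgen-responsive reporter and Renilla control light per well, raw and unnormalised, for each of two replicates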
Direction: firefly reporter light: higher = more light from androgen-responsive reporter; Renilla control light: higher = more constitutive control signal (cell number, transfection)
Rule for the call: 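Hit when the log firefly-to-Renilla ratio dropped or increased by a fixed fold versus the mean of GFP or LacZ controls across duplicate plates; lowering cut given as 1.5 and as 3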
Calls: active = hit: reporter lowered or raised; inactive = no hit
The screen tested about 24,000 reagents; below is an unselected part of those that have a named target and a result. In the full data, 246 (1%) were called active. 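Plates not normalised; calls are printed but the firefly/Renilla ratio behind them is not deposited; fold cut for lowering reported inconsistently.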 The raw values are shown without normalisation. A plus sign joins genes that one reagent is predicted to hit. The record does not give: the amount of reagent.

| target gene | dsRNA | firefly reporter light, replicate 1 | firefly reporter light, replicate 2 | Renilla control light, replicate 1 | Renilla control light, replicate 2 | call |
| --- | --- | --- | --- | --- | --- | --- |
| ine | DRSC00822 | 4.73e5 | 7.59e5 | 9.15e5 | 1.29e6 | inactive |
| ine | DRSC28874 | 5.10e5 | 3.37e5 | 1.58e6 | 1.34e6 | inactive |
| Kdm5 | DRSC03133 | 4.38e5 | 5.19e5 | 1.06e6 | 1.12e6 | inactive |
| Kdm5 | DRSC29570 | 2.59e5 | 2.80e5 | 9.89e5 | 9.89e5 | inactive |
| Mst84Dd | DRSC12600 | 77665 | 55323 | 1.79e6 | 1.96e6 | inactive |
| Mst84Dd | DRSC25596 | 6.49e5 | 4.57e5 | 6.30e5 | 5.86e5 | inactive |
| PXo | DRSC09734 | 1.09e6 | 1.05e6 | 2.28e6 | 2.25e6 | inactive |
| Tsp74F | DRSC10508 | 2.63e5 | 2.37e5 | 2.24e6 | 2.97e6 | inactive |
| CG7031 | DRSC23028 | 8.01e5 | 8.54e5 | 1.14e6 | 1.44e6 | inactive |
| CG7031 | DRSC25813 | 2.97e5 | 4.53e5 | 5.54e5 | 5.99e5 | inactive |
| btv | DRSC01615 | 1.36e5 | 1.59e5 | 4.14e5 | 3.80e5 | inactive |
| btv | DRSC02449 | 1.79e5 | 1.65e5 | 2.54e6 | 2.40e6 | inactive |
| CG12986 | DRSC19506 | 4.71e5 | 4.26e5 | 3.75e6 | 3.27e6 | inactive |
| CG6685 | DRSC10695 | 3.15e5 | 2.50e5 | 2.56e6 | 1.31e6 | inactive |
| CG44000 + CG33995 + CG44001 | DRSC00853 | 2.25e5 | 1.73e5 | 6.77e5 | 5.98e5 | inactive |
| CG44000 + CG33995 + CG44001 | DRSC02898 | 7.03e5 | 8.03e5 | 2.16e6 | 2.50e6 | inactive |
| Spn42Db | DRSC05009 | 1.68e5 | 1.25e5 | 1.24e6 | 8.13e5 | inactive |
| cona | DRSC16281 | 1.90e5 | 1.61e5 | 2.19e6 | 1.65e6 | inactive |
| lncRNA:CR32553 | DRSC19229 | 7.94e5 | 9.08e5 | 1.10e6 | 9.36e5 | inactive |
| CG3330 | DRSC15477 | 84814 | 1.11e5 | 6.51e5 | 7.22e5 | inactive |
| PDCD-5 | DRSC09955 | 3.58e5 | 2.58e5 | 3.54e6 | 2.00e6 | inactive |
| S6KL | DRSC19349 | 8.60e5 | 1.09e6 | 1.88e6 | 2.07e6 | inactive |
| S6KL | DRSC23147 | 7.50e5 | 8.23e5 | 1.58e6 | 1.41e6 | inactive |
| rdx | DRSC16580 | 1.18e5 | 1.88e5 | 2.12e6 | 2.30e6 | inactive |
| rdx | DRSC23120 | 6.84e5 | 7.93e5 | 1.66e6 | 1.77e6 | inactive |
| rdx | DRSC29820 | 4.51e5 | 3.79e5 | 1.48e6 | 1.30e6 | inactive |

Records above whose target name begins with I or i:
| target gene | dsRNA | firefly reporter light, replicate 1 | firefly reporter light, replicate 2 | Renilla control light, replicate 1 | Renilla control light, replicate 2 | call |
| --- | --- | --- | --- | --- | --- | --- |
| ine | DRSC00822 | 4.73e5 | 7.59e5 | 9.15e5 | 1.29e6 | inactive |
| ine | DRSC28874 | 5.10e5 | 3.37e5 | 1.58e6 | 1.34e6 | inactive |
